One experiment has as its target ClpP (S. aureus) (UniProt Q2G036). The experiment in a line: two-hybrid; bacterial two-hybrid (T25 and T18 domains of adenylate cyclase) in E. coli BTH101; all combinations of plasmid pairs; beta-galactosidase in Miller units after 48 h at 30 °C in LB with 0.5 mM IPTG.
For experiment [1], the target named is ComK competence regulator of Staphylococcus aureus (S. aureus). Described as above.

Amino acid sequences for entries named in this document (tags omitted).
UniProt Q2G036: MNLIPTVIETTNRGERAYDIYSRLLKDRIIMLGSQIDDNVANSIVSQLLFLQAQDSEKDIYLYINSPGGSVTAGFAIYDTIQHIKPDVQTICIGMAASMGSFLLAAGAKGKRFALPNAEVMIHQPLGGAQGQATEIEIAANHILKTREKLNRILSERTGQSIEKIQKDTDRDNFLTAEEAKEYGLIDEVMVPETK

For two molecules, binding results are on record in paper PMC8938553.

Results are given in words; binding and its absence hold for the method and conditions named. Some binding calls cover weakened binding; strength is not graded here.

For “ComK competence regulator of Staphylococcus aureus (from UniProt A0A0H2XJ42 1-176)”, in the experiment with ClpP (S. aureus), the binding entry is listed as “binds”.

B1: MecA-homolog (SA0857 locus) of S. aureus (protein, UniProt P60185 1-239)
chain: MRIERVDDTTVKLFITYSDIEARGFSREDLWTNRKRGEEFFWSMMDEINEEEDFVVEGPLWIQVHAFEKGVEVTISKSKNEDMMNMSDDDATDQFDEQVQELLAQTLEGEDQLEELFEQRTKEKEAQGSKRQKSSARKNTRTIIVKFNDLEDVINYAYHSNPITTEFEDLLYMVDGTYYYAVHFDSHVDQEVINDSYSQLLEFAYPTDRTEVYLNDYAKIIMSHNVTAQVRRYFPETTE
Turning to B1, in experiment [1], the binding result is on record as “no binding”.
